No constants are given. Whether binding was seen depends on the method and setting. Some results given as binding are weak or reduced against the parent protein; the word gives no strength.
Biological target: hCEACAM1-Fc (human CEACAM1 extracellular domain Gln35-Gly428 fused to human IgG4 Fc) (human) (UniProt P13688)
Assay: ELISA; hCEACAM1-Fc coated at 2.5 ㎍/㎖, biotin-hCEACAM1-Fc titrated from 150 ㎍/㎖

By UniProt entry, the sequences of proteins in these tests, tags left out. Where a name states a change or a piece, a line headed by the entry shows the natural chain unless it says otherwise.
UniProt P13688: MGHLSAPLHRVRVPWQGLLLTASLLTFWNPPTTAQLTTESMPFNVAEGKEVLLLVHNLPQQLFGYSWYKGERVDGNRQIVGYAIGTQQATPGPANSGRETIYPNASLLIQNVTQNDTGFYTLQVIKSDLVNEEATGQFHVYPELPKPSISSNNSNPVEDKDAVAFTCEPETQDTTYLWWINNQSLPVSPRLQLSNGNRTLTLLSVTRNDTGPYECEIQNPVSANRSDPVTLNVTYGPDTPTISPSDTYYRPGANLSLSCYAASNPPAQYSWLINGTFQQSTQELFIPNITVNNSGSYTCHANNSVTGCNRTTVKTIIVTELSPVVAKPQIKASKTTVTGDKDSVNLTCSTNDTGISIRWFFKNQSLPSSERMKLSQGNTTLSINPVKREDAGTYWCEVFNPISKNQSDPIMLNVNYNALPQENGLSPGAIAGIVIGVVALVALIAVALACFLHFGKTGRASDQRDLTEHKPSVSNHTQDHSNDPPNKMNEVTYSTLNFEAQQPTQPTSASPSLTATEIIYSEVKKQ

“hCEACAM1-Fc (human CEACAM1 extracellular domain Gln35-Gly428 fused to human IgG4 Fc) (from UniProt P13688 35-428) (Fc fusion)” was tested, and the binding was “binds”.
